Results are given in words; binding and its absence hold for the method and conditions named. In cells and extracts the contact can be indirect. Some binding calls cover weakened binding; strength is not graded here.
Key:
[1] = target: CXCR2 (human chemokine receptor, stably expressed) (human) (UniProt P25025); assay: co-IP; lysates of 293-CXCR2 cells, vehicle (0 min) or 100 ng/ml CXCL8 for 5, 10, 20 and 30 min; mouse anti-CXCR2 antibody pre-bound to Protein A/G Sepharose; blot for endogenous LASP-1
[2] = target: CXCR2 (human chemokine receptor, stably expressed) (human) (UniProt P25025); assay: co-IP; lysates of dHL-60 CXCR2 cells, vehicle (0 min) or 100 ng/ml CXCL8 for 1, 2 and 5 min; mouse anti-CXCR2 antibody pre-bound to Protein A/G Sepharose; blot for endogenous LASP-1
[3] = target: HA-tagged CXCR4 (stably expressed in HEK-293) (human) (UniProt P61073); assay: co-IP; lysates of 293-HA-CXCR4 cells, vehicle (0 min) or CXCL12 for 5, 10, 20 and 30 min; mouse anti-HA antibody cross-linked to Protein A/G Sepharose; blot for endogenous LASP-1
[4] = target: CXCR2 (human chemokine receptor, stably expressed) (human) (UniProt P25025); assay: co-IP; lysates (1.5 mg) of 293-CXCR2 cells transiently over-expressing HA-LIM-LIM-CAAX, vehicle (0 min) or 100 ng/ml CXCL8 for 5 and 10 min; mouse anti-CXCR2 antibody pre-bound to Protein A/G Sepharose; blots for LIM-LIM-CAAX and endogenous LASP-1

Amino acid sequences for entries named in this document (tags omitted).
UniProt P25025: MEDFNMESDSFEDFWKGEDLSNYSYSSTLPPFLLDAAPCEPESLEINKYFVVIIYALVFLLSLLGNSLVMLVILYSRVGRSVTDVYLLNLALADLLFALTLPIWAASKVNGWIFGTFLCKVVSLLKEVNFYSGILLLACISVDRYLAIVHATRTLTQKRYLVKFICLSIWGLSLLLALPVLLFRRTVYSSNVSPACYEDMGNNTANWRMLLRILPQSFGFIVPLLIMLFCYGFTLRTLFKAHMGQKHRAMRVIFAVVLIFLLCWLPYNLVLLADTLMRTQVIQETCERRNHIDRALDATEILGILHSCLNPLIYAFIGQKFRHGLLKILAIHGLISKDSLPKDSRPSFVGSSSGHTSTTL
UniProt P61073: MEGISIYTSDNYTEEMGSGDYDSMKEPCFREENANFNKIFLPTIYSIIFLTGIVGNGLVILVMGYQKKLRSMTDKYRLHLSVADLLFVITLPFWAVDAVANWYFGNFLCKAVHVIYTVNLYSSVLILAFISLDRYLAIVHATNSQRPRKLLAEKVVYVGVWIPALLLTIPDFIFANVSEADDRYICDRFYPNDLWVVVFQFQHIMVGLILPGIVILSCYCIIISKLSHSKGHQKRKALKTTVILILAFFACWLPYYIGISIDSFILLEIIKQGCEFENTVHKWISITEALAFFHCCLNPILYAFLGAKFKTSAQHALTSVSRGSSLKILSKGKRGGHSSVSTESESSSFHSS

Measured: binding

B1: LIM and SH3 protein 1 (LASP-1), endogenous (protein, UniProt Q14847 1-261)
chain: MNPNCARCGKIVYPTEKVNCLDKFWHKACFHCETCKMTLNMKNYKGYEKKPYCNAHYPKQSFTMVADTPENLRLKQQSELQSQVRYKEEFEKNKGKGFSVVADTPELQRIKKTQDQISNIKYHEEFEKSRMGPSGGEGMEPERRDSQDGSSYRRPLEQQQPHHIPTSAPVYQQPQQQPVAQSYGGYKEPAAPVSIQRSAPGGGGKRYRAVYDYSAADEDEVSFQDGDTIVNVQQIDDGWMYGTVERTGDTGMLPANYVEAI
binds: all assays above

Reference: paper PMC2856662
